# Source: the supplement of paper PMC5355238
# Counter-ions that a name gives are not always drawn. The list shows a part of the results. Most entries show no effect beyond the scatter of the controls.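 Using flow cytometry, the assay measures the median γH2AX antibody signal in S-phase Reh cells (a human leukemia line). Each score is the number of standard deviations from the median difference of paired plate sets. Candidate hits scored above 2.5; compounds scoring below -2 lowered MK1775-induced damage.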
# System: Reh
# Test: Z' of S-phase gammaH2AX difference (drug + MK1775 minus drug alone) (Z-score); higher = stronger synergistic S-phase DNA damage with MK1775
# Conditions: MK1775 concentration 400 nM; first compound 10 µM; 4 h
row,SMILES,Z' of S-phase gammaH2AX difference (Z-score)
1,Nc1ccc(CCNc2ncnc3c2ncn3C2OC(CO)C(O)C2O)cc1 (configuration not stated) [N6-2-(4-Aminophenyl)ethyladenosine] + C=CCn1c(=O)c2cnc(Nc3ccc(N4CCN(C)CC4)cc3)nc2n1-c1cccc(C(C)(C)O)n1 [MK1775],inactive: 0.364
2,OCC1OC(n2cnc3c(NCCc4ccccc4)ncnc32)C(O)C1O (configuration not stated) [N6-2-Phenylethyladenosine] + C=CCn1c(=O)c2cnc(Nc3ccc(N4CCN(C)CC4)cc3)nc2n1-c1cccc(C(C)(C)O)n1 [MK1775],inactive: 0.815
3,OC[C@H]1O[C@@H](n2cnc3c(Nc4ccccc4)ncnc32)[C@H](O)[C@@H]1O [N6-Phenyladenosine] + C=CCn1c(=O)c2cnc(Nc3ccc(N4CCN(C)CC4)cc3)nc2n1-c1cccc(C(C)(C)O)n1 [MK1775],inactive: -0.102
4,OC(CN1CCN(c2cccc(Cl)c2)CC1)C(c1ccccc1)c1ccccc1 (configuration not stated) + C=CCn1c(=O)c2cnc(Nc3ccc(N4CCN(C)CC4)cc3)nc2n1-c1cccc(C(C)(C)O)n1 [MK1775],inactive: 0.411
5,"C#CCn1c(=O)c2c(ncn2C)n(C)c1=O [3,7-Dimethyl-I-propargylxanthine] + C=CCn1c(=O)c2cnc(Nc3ccc(N4CCN(C)CC4)cc3)nc2n1-c1cccc(C(C)(C)O)n1 [MK1775]",inactive: 0.94
6,Oc1cccc(-c2nc(N3CCOCC3)c3oc4ncccc4c3n2)c1 + C=CCn1c(=O)c2cnc(Nc3ccc(N4CCN(C)CC4)cc3)nc2n1-c1cccc(C(C)(C)O)n1 [MK1775],inactive: -0.719
7,N#C/C(=C\c1ccc(O)c(O)c1)C(=O)NCc1ccccc1 [Tyrphostin AG 490] + C=CCn1c(=O)c2cnc(Nc3ccc(N4CCN(C)CC4)cc3)nc2n1-c1cccc(C(C)(C)O)n1 [MK1775],inactive: -0.483
8,CCN(CC)CCCCNc1ncc2cc(-c3cc(OC)cc(OC)c3)c(NC(=O)NC(C)(C)C)nc2n1 + C=CCn1c(=O)c2cnc(Nc3ccc(N4CCN(C)CC4)cc3)nc2n1-c1cccc(C(C)(C)O)n1 [MK1775],inactive: -0.382
9,"CN(C)CCC(c1ccc(Br)cc1)c1ccccn1 (single isomer, unassigned; (+)) [(+)-Brompheniramine maleate] + C=CCn1c(=O)c2cnc(Nc3ccc(N4CCN(C)CC4)cc3)nc2n1-c1cccc(C(C)(C)O)n1 [MK1775]",inactive: -0.15
10,CC(C)C[C@H](NC(=O)CNC(=O)c1cc(Cl)ccc1Cl)B1OC(=O)C(CC(=O)O)(CC(=O)O)O1 + C=CCn1c(=O)c2cnc(Nc3ccc(N4CCN(C)CC4)cc3)nc2n1-c1cccc(C(C)(C)O)n1 [MK1775],inactive: -0.753
11,"CC(N)(Cc1ccc(O)c(O)c1)C(=O)O (racemic) [(?)-3-(3,4-dihydroxyphenyl)-2-methyl-DL-alanine] + C=CCn1c(=O)c2cnc(Nc3ccc(N4CCN(C)CC4)cc3)nc2n1-c1cccc(C(C)(C)O)n1 [MK1775]",inactive: -0.417
12,NC(=O)c1cccc(N)c1 [3-aminobenzamide] + C=CCn1c(=O)c2cnc(Nc3ccc(N4CCN(C)CC4)cc3)nc2n1-c1cccc(C(C)(C)O)n1 [MK1775],inactive: -0.244
13,Cc1ccc(-n2nc(C(C)(C)C)cc2NC(=O)Nc2ccc(OCCN3CCOCC3)c3ccccc23)cc1 [BIRB 796 (Doramapimod)] + C=CCn1c(=O)c2cnc(Nc3ccc(N4CCN(C)CC4)cc3)nc2n1-c1cccc(C(C)(C)O)n1 [MK1775],inactive: 0.339
14,CNC(=O)c1ccc(C)c(-n2c(C)cc(OCc3ccc(F)cc3F)c(Br)c2=O)c1 + C=CCn1c(=O)c2cnc(Nc3ccc(N4CCN(C)CC4)cc3)nc2n1-c1cccc(C(C)(C)O)n1 [MK1775],inactive: 0.177
15,CCCN(CCc1ccccc1)C1CCc2c(O)cccc2C1 (configuration not stated) [(?)-PPHT hydrochloride] + C=CCn1c(=O)c2cnc(Nc3ccc(N4CCN(C)CC4)cc3)nc2n1-c1cccc(C(C)(C)O)n1 [MK1775],inactive: -0.136
16,CNC(=N)NCCC[C@H](N)C(=O)O [NG-Monomethyl-L-arginine acetate] + C=CCn1c(=O)c2cnc(Nc3ccc(N4CCN(C)CC4)cc3)nc2n1-c1cccc(C(C)(C)O)n1 [MK1775],inactive: -0.33
17,O=C(O)C1=CCCN(CCON=C(c2ccccc2)c2ccccc2)C1 [NO-711 hydrochloride] + C=CCn1c(=O)c2cnc(Nc3ccc(N4CCN(C)CC4)cc3)nc2n1-c1cccc(C(C)(C)O)n1 [MK1775],inactive: -0.776
18,CC(C)(C)NCC(O)COc1cccc2[nH]c(=O)[nH]c12 (configuration not stated) + C=CCn1c(=O)c2cnc(Nc3ccc(N4CCN(C)CC4)cc3)nc2n1-c1cccc(C(C)(C)O)n1 [MK1775],inactive: -0.184
19,O=C(c1ccccc1)c1ccc2n1CCC2C(=O)O (configuration not stated) [Ketorolac tris salt] + C=CCn1c(=O)c2cnc(Nc3ccc(N4CCN(C)CC4)cc3)nc2n1-c1cccc(C(C)(C)O)n1 [MK1775],inactive: -1.17

row,SMILES,Z' of S-phase gammaH2AX difference (Z-score)
1,CNC(=O)[C@H]1O[C@@H](n2cnc3c(NCc4cccc(I)c4)nc(Cl)nc32)[C@H](O)[C@@H]1O [Chloro-IB-MECA] + C=CCn1c(=O)c2cnc(Nc3ccc(N4CCN(C)CC4)cc3)nc2n1-c1cccc(C(C)(C)O)n1 [MK1775],inactive: -0.0607
2,CCN(CC)CCCC(C)Nc1nc(C)cc(Nc2ccc3nc(C)cc(N)c3c2)n1 (configuration not stated) + C=CCn1c(=O)c2cnc(Nc3ccc(N4CCN(C)CC4)cc3)nc2n1-c1cccc(C(C)(C)O)n1 [MK1775],inactive: 0.768
3,CN1Cc2c(N)cccc2C(c2ccccc2)C1 (configuration not stated) [Nomifensine maleate] + C=CCn1c(=O)c2cnc(Nc3ccc(N4CCN(C)CC4)cc3)nc2n1-c1cccc(C(C)(C)O)n1 [MK1775],inactive: -0.335
4,CN(C)C/C=C/C(=O)Nc1cc2c(Nc3ccc(F)c(Cl)c3)ncnc2cc1O[C@H]1CCOC1 [Afatinib (BIBW2992)] + C=CCn1c(=O)c2cnc(Nc3ccc(N4CCN(C)CC4)cc3)nc2n1-c1cccc(C(C)(C)O)n1 [MK1775],inactive: 1.26
5,"O=C1NC(=O)C(c2ccccc2)(c2ccccc2)N1 [5,5-Diphenylhydantoin] + C=CCn1c(=O)c2cnc(Nc3ccc(N4CCN(C)CC4)cc3)nc2n1-c1cccc(C(C)(C)O)n1 [MK1775]",inactive: -0.814
6,COc1cccc(C(=O)NCCN2CCN(c3ccc(Cl)cc3)CC2)c1 + C=CCn1c(=O)c2cnc(Nc3ccc(N4CCN(C)CC4)cc3)nc2n1-c1cccc(C(C)(C)O)n1 [MK1775],inactive: -0.184
7,C[C@@H]1C(=O)NC2=Nc3cccc(Cl)c3CN21 [Quazinone] + C=CCn1c(=O)c2cnc(Nc3ccc(N4CCN(C)CC4)cc3)nc2n1-c1cccc(C(C)(C)O)n1 [MK1775],inactive: -0.311
8,CCCCCCCCCCCCC/C=C/[C@@H](O)[C@@H](N)CO [Sphingosine] + C=CCn1c(=O)c2cnc(Nc3ccc(N4CCN(C)CC4)cc3)nc2n1-c1cccc(C(C)(C)O)n1 [MK1775],inactive: -0.162
9,Cc1cc(N)c2ccccc2[n+]1CCCCCCCCCC[n+]1c(C)cc(N)c2ccccc21 [Dequalinium dichloride] + C=CCn1c(=O)c2cnc(Nc3ccc(N4CCN(C)CC4)cc3)nc2n1-c1cccc(C(C)(C)O)n1 [MK1775],inactive: 1.32
10,Nc1c2c(nc3ccccc13)CCCC2O (configuration not stated) [Hydroxytacrine maleate] + C=CCn1c(=O)c2cnc(Nc3ccc(N4CCN(C)CC4)cc3)nc2n1-c1cccc(C(C)(C)O)n1 [MK1775],inactive: -0.172
11,N#CC(C#N)=C(N)/C(C#N)=C/c1cc(O)c(O)c(O)c1 [Tyrphostin 51] + C=CCn1c(=O)c2cnc(Nc3ccc(N4CCN(C)CC4)cc3)nc2n1-c1cccc(C(C)(C)O)n1 [MK1775],inactive: 0.584
12,CCN(CC)CCCCCCCCOC(=O)c1cc(OC)c(OC)c(OC)c1 [TMB-8 hydrochloride] + C=CCn1c(=O)c2cnc(Nc3ccc(N4CCN(C)CC4)cc3)nc2n1-c1cccc(C(C)(C)O)n1 [MK1775],inactive: 0.431
13,NCCNC(=O)c1ccc(Cl)cc1 [Ro 16-6491 hydrochloride] + C=CCn1c(=O)c2cnc(Nc3ccc(N4CCN(C)CC4)cc3)nc2n1-c1cccc(C(C)(C)O)n1 [MK1775],inactive: 0.371
14,Cn1ccc2cc3c(cc21)CCN3C(=O)Nc1cccnc1 + C=CCn1c(=O)c2cnc(Nc3ccc(N4CCN(C)CC4)cc3)nc2n1-c1cccc(C(C)(C)O)n1 [MK1775],inactive: -0.841
15,O=C(O)CP(=O)(O)O [Phosphonoacetic acid] + C=CCn1c(=O)c2cnc(Nc3ccc(N4CCN(C)CC4)cc3)nc2n1-c1cccc(C(C)(C)O)n1 [MK1775],inactive: -0.354
16,"Nc1ccc2c3c(cccc13)C(=O)NC2=O [4-Amino-1,8-naphthalimide] + C=CCn1c(=O)c2cnc(Nc3ccc(N4CCN(C)CC4)cc3)nc2n1-c1cccc(C(C)(C)O)n1 [MK1775]",inactive: 0.468
17,Cn1cc(-c2ccc3nnc(Sc4ccc5ncccc5c4)n3n2)cn1 + C=CCn1c(=O)c2cnc(Nc3ccc(N4CCN(C)CC4)cc3)nc2n1-c1cccc(C(C)(C)O)n1 [MK1775],inactive: 0.14
18,Clc1ccc(Nc2nnc(Cc3ccncc3)c3ccccc23)cc1 [Vatalanib dihydrochloride (PTK787)] + C=CCn1c(=O)c2cnc(Nc3ccc(N4CCN(C)CC4)cc3)nc2n1-c1cccc(C(C)(C)O)n1 [MK1775],inactive: 0.0939

# Nothing new here: entries from further up.
row,SMILES,Z' of S-phase gammaH2AX difference (Z-score)
6,COc1cccc(C(=O)NCCN2CCN(c3ccc(Cl)cc3)CC2)c1 + C=CCn1c(=O)c2cnc(Nc3ccc(N4CCN(C)CC4)cc3)nc2n1-c1cccc(C(C)(C)O)n1 [MK1775],inactive: -0.184
7,C[C@@H]1C(=O)NC2=Nc3cccc(Cl)c3CN21 [Quazinone] + C=CCn1c(=O)c2cnc(Nc3ccc(N4CCN(C)CC4)cc3)nc2n1-c1cccc(C(C)(C)O)n1 [MK1775],inactive: -0.311
8,CCCCCCCCCCCCC/C=C/[C@@H](O)[C@@H](N)CO [Sphingosine] + C=CCn1c(=O)c2cnc(Nc3ccc(N4CCN(C)CC4)cc3)nc2n1-c1cccc(C(C)(C)O)n1 [MK1775],inactive: -0.162
